Record: PubChem BioAssay AID504764 (Drosophila RNAi Screening Center, 2011)
The deposit covers about 22,000 reagents; below is an unselected part of those with a known target gene and a result. Of all reagents, 403 (1.9%) got an active call. 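Unnormalised raw counts per well; ratio z-scores behind the hit calls and whether each hit raises or lowers signal are not deposited.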 The record does not give: the amount of reagent.

Purpose: 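Knock-downs that raise or lower a Notch target reporter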 (primary screen)
Cells: Drosophila Kc167 cells
Reagents: long dsRNA against Drosophila genes
Timing: about 5 days (4 days dsRNA, then 24 h after transfection)
Challenge: transfection of constitutively active membrane-tethered Notch lacking the extracellular domain, read 24 h later
Read-out: 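Light from a Notch-responsive E(spl)m3 luciferase reporter under active Notch, with control-promoter and no-Notch reporter wells to normalise; raw counts from paired wells a and b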
Direction: induced reporter light, run 1, well a and induced reporter light, run 1, well b: higher = more light from the Notch target reporter with active Notch; control promoter light, run 1, well a and control promoter light, run 1, well b: higher = more light from the viral control promoter (cell number, transfection, viability); uninduced reporter light, run 1, well a: higher = more light from the Notch target reporter without active Notch
Call rule: 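Wells with low control signal or poorly matching duplicates excluded; duplicates averaged; per source plate, z beyond ±2 for induced/control log2 ratio or beyond ±1.8 for induced/uninduced marks a hit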
Calls: active = modifier hit (raised or lowered Notch signal); inactive = not a hit

{"target":"TM9SF3 (GeneID 38635)","dsRNA":"DRSC09747","induced reporter light, run 1, well a":2.72e5,"induced reporter light, run 1, well b":2.91e5,"control promoter light, run 1, well a":3.61e5,"control promoter light, run 1, well b":2.09e5,"uninduced reporter light, run 1, well a":9870,"Outcome":"inactive"}
{"target":"PGAP2 (GeneID 33258)","dsRNA":"DRSC00632","induced reporter light, run 1, well a":1.20e5,"induced reporter light, run 1, well b":1.16e5,"control promoter light, run 1, well a":1.15e5,"control promoter light, run 1, well b":1.26e5,"uninduced reporter light, run 1, well a":9390,"Outcome":"inactive"}
{"target":"mle (GeneID 35523)","dsRNA":"DRSC04921","induced reporter light, run 1, well a":1.85e5,"induced reporter light, run 1, well b":1.66e5,"control promoter light, run 1, well a":2.00e5,"control promoter light, run 1, well b":1.82e5,"uninduced reporter light, run 1, well a":12792,"Outcome":"inactive"}
{"target":"Fer3HCH (GeneID 32260)","dsRNA":"DRSC19892","induced reporter light, run 1, well a":1.28e5,"induced reporter light, run 1, well b":1.40e5,"control promoter light, run 1, well a":2.77e5,"control promoter light, run 1, well b":1.90e5,"uninduced reporter light, run 1, well a":9380,"Outcome":"inactive"}
{"target":"GatB (GeneID 42861)","dsRNA":"DRSC15807","induced reporter light, run 1, well a":1.35e5,"induced reporter light, run 1, well b":1.49e5,"control promoter light, run 1, well a":2.14e5,"control promoter light, run 1, well b":1.93e5,"uninduced reporter light, run 1, well a":12050,"Outcome":"inactive"}
{"target":"CG12860 (GeneID 36629)","dsRNA":"DRSC06200","induced reporter light, run 1, well a":79645,"induced reporter light, run 1, well b":96645,"control promoter light, run 1, well a":1.25e5,"control promoter light, run 1, well b":92545,"uninduced reporter light, run 1, well a":7630,"Outcome":"inactive"}
{"target":"RpL36 (GeneID 31009)","dsRNA":"DRSC18708","induced reporter light, run 1, well a":6792,"induced reporter light, run 1, well b":7160,"control promoter light, run 1, well a":9930,"control promoter light, run 1, well b":10185,"uninduced reporter light, run 1, well a":425,"Outcome":"inactive"}
{"target":"Dgp-1 (GeneID 37080)","dsRNA":"DRSC07400","induced reporter light, run 1, well a":1.31e5,"induced reporter light, run 1, well b":85485,"control promoter light, run 1, well a":1.04e5,"control promoter light, run 1, well b":99380,"uninduced reporter light, run 1, well a":10055,"Outcome":"inactive"}
{"target":"Ir60d (GeneID 7354402)","dsRNA":"DRSC04218","induced reporter light, run 1, well a":1.81e5,"induced reporter light, run 1, well b":1.77e5,"control promoter light, run 1, well a":1.66e5,"control promoter light, run 1, well b":1.46e5,"uninduced reporter light, run 1, well a":12145,"Outcome":"inactive"}
{"target":"Nhe2 (GeneID 35376)","dsRNA":"DRSC03172","induced reporter light, run 1, well a":44445,"induced reporter light, run 1, well b":41620,"control promoter light, run 1, well a":63670,"control promoter light, run 1, well b":47255,"uninduced reporter light, run 1, well a":2790,"Outcome":"inactive"}
{"target":"Nhe2 (GeneID 35376)","dsRNA":"DRSC03377","induced reporter light, run 1, well a":32780,"induced reporter light, run 1, well b":23400,"control promoter light, run 1, well a":14740,"control promoter light, run 1, well b":20555,"uninduced reporter light, run 1, well a":1050,"Outcome":"inactive"}
{"target":"CG9992 (GeneID 32605)","dsRNA":"DRSC20226","induced reporter light, run 1, well a":1.92e5,"induced reporter light, run 1, well b":1.92e5,"control promoter light, run 1, well a":2.88e5,"control promoter light, run 1, well b":2.27e5,"uninduced reporter light, run 1, well a":12728,"Outcome":"inactive"}
{"target":"CG15446 (GeneID 33088)","dsRNA":"DRSC20518","induced reporter light, run 1, well a":1.04e5,"induced reporter light, run 1, well b":1.03e5,"control promoter light, run 1, well a":1.41e5,"control promoter light, run 1, well b":1.38e5,"uninduced reporter light, run 1, well a":11825,"Outcome":"inactive"}
{"target":"bt (GeneID 43814)","dsRNA":"DRSC17129","induced reporter light, run 1, well a":1.57e5,"induced reporter light, run 1, well b":1.77e5,"control promoter light, run 1, well a":2.18e5,"control promoter light, run 1, well b":2.16e5,"uninduced reporter light, run 1, well a":14300,"Outcome":"inactive"}
{"target":"bt (GeneID 43814)","dsRNA":"DRSC17171","induced reporter light, run 1, well a":1.80e5,"induced reporter light, run 1, well b":2.07e5,"control promoter light, run 1, well a":2.62e5,"control promoter light, run 1, well b":2.48e5,"uninduced reporter light, run 1, well a":13935,"Outcome":"inactive"}
{"target":"Sp7 (GeneID 40918)","dsRNA":"DRSC15461","induced reporter light, run 1, well a":52140,"induced reporter light, run 1, well b":75225,"control promoter light, run 1, well a":57865,"control promoter light, run 1, well b":49315,"uninduced reporter light, run 1, well a":3505,"Outcome":"inactive"}
{"target":"CG18666 (GeneID 50441)","dsRNA":"DRSC02694","induced reporter light, run 1, well a":1.14e5,"induced reporter light, run 1, well b":1.35e5,"control promoter light, run 1, well a":67615,"control promoter light, run 1, well b":94395,"uninduced reporter light, run 1, well a":13900,"Outcome":"inactive"}
{"target":"CG3270 (GeneID 35575)","dsRNA":"DRSC04988","induced reporter light, run 1, well a":2.07e5,"induced reporter light, run 1, well b":1.76e5,"control promoter light, run 1, well a":1.57e5,"control promoter light, run 1, well b":1.80e5,"uninduced reporter light, run 1, well a":14080,"Outcome":"inactive"}
{"target":"CG15012 (GeneID 38529)","dsRNA":"DRSC08465","induced reporter light, run 1, well a":1.62e5,"induced reporter light, run 1, well b":1.08e5,"control promoter light, run 1, well a":83565,"control promoter light, run 1, well b":36375,"uninduced reporter light, run 1, well a":13265,"Outcome":"inactive"}
{"target":"CG10750 (GeneID 35206)","dsRNA":"DRSC02105","induced reporter light, run 1, well a":1.59e5,"induced reporter light, run 1, well b":1.58e5,"control promoter light, run 1, well a":1.87e5,"control promoter light, run 1, well b":1.57e5,"uninduced reporter light, run 1, well a":15325,"Outcome":"inactive"}
{"target":"Ipo9 (GeneID 41367)","dsRNA":"DRSC16813","induced reporter light, run 1, well a":41705,"induced reporter light, run 1, well b":44890,"control promoter light, run 1, well a":42815,"control promoter light, run 1, well b":35000,"uninduced reporter light, run 1, well a":2995,"Outcome":"inactive"}
{"target":"CG12699 (GeneID 36944)","dsRNA":"DRSC06162","induced reporter light, run 1, well a":99100,"induced reporter light, run 1, well b":1.22e5,"control promoter light, run 1, well a":2.22e5,"control promoter light, run 1, well b":2.25e5,"uninduced reporter light, run 1, well a":10425,"Outcome":"inactive"}
{"target":"Cyp6a13 (GeneID 35837)","dsRNA":"DRSC07375","induced reporter light, run 1, well a":2.07e5,"induced reporter light, run 1, well b":1.75e5,"control promoter light, run 1, well a":2.11e5,"control promoter light, run 1, well b":2.00e5,"uninduced reporter light, run 1, well a":17375,"Outcome":"inactive"}
{"target":"Gmd (GeneID 33716)","dsRNA":"DRSC03119","induced reporter light, run 1, well a":1.39e5,"induced reporter light, run 1, well b":2.00e5,"control promoter light, run 1, well a":2.09e5,"control promoter light, run 1, well b":2.14e5,"uninduced reporter light, run 1, well a":16200,"Outcome":"inactive"}

Records above whose gene name starts with N or n:
{"target":"Nhe2 (GeneID 35376)","dsRNA":"DRSC03172","induced reporter light, run 1, well a":44445,"induced reporter light, run 1, well b":41620,"control promoter light, run 1, well a":63670,"control promoter light, run 1, well b":47255,"uninduced reporter light, run 1, well a":2790,"Outcome":"inactive"}
{"target":"Nhe2 (GeneID 35376)","dsRNA":"DRSC03377","induced reporter light, run 1, well a":32780,"induced reporter light, run 1, well b":23400,"control promoter light, run 1, well a":14740,"control promoter light, run 1, well b":20555,"uninduced reporter light, run 1, well a":1050,"Outcome":"inactive"}
